Common to all, as to assay: cross-linking; XL-MS on isolated intact yeast vacuoles; 1 mM Azide-A-DSBSO (lysine-lysine), 20 min at room temperature, 10 mM HEPES/KOH pH 7.4 buffers; 2% FDR at unique lysine-lysine connection level
Experiment [1] deals with T1, Ssh4 (adapter protein of Rsp5) (Saccharomyces cerevisiae (endogenous in isolated vacuoles)) (UniProt P32343).
T1 sequence: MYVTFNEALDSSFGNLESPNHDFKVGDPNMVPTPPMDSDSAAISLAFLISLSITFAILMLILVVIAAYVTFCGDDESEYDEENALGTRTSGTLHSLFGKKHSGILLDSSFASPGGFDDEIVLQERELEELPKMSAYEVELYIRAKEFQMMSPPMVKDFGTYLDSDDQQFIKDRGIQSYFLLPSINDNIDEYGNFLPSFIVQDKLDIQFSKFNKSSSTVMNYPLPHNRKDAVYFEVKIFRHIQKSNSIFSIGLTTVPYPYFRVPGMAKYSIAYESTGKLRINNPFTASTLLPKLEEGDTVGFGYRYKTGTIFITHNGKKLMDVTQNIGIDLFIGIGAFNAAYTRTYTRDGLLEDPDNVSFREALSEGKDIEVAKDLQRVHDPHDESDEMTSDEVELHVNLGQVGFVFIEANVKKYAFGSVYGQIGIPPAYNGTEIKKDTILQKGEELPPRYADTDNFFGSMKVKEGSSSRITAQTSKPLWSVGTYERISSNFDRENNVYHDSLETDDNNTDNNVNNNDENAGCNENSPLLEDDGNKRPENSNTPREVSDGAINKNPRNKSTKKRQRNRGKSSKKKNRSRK

Chains of the proteins cited; added tags and fusions are not shown.
UniProt Q03308: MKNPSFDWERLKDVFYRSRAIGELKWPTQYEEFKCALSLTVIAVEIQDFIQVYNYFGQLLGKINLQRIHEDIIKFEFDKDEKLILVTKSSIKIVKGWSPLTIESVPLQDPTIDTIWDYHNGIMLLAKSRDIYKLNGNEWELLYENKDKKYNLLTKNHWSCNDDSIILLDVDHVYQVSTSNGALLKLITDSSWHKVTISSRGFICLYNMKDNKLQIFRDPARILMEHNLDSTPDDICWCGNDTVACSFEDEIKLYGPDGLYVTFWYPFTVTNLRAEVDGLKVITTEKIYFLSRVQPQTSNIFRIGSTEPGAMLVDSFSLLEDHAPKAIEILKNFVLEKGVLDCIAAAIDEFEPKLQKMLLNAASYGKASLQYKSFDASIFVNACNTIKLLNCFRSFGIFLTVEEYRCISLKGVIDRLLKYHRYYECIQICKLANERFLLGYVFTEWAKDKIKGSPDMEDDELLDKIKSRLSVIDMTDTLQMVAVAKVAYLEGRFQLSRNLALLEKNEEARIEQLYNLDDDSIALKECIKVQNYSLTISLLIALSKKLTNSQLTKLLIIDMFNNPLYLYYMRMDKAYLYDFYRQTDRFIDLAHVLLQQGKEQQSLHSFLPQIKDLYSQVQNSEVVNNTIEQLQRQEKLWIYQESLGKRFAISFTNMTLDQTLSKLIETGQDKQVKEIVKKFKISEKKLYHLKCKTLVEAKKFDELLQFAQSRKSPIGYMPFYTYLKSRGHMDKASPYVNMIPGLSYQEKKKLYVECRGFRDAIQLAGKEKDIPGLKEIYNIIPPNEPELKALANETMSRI
UniProt P20795: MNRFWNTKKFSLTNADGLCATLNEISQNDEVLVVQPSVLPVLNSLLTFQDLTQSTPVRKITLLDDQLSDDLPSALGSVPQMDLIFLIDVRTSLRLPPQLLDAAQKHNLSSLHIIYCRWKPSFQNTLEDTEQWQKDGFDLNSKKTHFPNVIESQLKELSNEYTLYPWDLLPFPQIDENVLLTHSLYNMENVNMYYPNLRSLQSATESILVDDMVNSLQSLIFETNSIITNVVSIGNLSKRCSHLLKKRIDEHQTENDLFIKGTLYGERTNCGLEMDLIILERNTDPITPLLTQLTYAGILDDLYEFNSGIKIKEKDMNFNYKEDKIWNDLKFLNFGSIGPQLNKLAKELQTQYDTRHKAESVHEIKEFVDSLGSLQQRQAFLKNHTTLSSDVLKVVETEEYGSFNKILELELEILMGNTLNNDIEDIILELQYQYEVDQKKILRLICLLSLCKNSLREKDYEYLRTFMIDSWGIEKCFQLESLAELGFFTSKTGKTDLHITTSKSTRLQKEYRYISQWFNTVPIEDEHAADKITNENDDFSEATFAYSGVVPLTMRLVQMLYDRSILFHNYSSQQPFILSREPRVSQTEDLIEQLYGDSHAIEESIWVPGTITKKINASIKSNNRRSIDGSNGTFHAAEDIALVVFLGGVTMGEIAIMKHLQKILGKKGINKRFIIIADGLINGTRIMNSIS
UniProt P39940: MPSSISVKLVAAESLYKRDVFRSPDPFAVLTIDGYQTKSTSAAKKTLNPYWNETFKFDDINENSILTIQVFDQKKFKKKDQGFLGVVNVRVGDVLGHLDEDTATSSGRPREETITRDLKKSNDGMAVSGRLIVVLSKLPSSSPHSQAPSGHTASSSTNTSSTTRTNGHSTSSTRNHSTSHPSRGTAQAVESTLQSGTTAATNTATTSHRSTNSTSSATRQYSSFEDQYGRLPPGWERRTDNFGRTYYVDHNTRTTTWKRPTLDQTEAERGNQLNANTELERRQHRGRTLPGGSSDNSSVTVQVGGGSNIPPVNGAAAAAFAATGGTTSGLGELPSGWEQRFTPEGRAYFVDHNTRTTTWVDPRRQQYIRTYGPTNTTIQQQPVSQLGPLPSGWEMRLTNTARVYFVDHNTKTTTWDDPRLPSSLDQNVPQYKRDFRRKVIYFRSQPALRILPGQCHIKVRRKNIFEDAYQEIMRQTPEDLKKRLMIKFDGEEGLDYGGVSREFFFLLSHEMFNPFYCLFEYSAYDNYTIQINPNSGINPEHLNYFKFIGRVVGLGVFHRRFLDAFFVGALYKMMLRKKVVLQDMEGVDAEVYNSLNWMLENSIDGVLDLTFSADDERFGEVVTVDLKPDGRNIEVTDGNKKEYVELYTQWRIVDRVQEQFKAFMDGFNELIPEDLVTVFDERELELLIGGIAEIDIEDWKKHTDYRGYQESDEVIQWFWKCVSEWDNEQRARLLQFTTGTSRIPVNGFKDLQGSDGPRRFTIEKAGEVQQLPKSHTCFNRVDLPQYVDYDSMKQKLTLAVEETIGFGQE
UniProt Q04338: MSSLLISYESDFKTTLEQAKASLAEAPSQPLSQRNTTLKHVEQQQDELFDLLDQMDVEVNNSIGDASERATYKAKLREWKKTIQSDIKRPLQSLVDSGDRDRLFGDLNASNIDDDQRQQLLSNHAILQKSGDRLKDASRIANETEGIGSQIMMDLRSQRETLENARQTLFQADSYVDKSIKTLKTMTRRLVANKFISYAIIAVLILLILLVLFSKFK
UniProt P32939: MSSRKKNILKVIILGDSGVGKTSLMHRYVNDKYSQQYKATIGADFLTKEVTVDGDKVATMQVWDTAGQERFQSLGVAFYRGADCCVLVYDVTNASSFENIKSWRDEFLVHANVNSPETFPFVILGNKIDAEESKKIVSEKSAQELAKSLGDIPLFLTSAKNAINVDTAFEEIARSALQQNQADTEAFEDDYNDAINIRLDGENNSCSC

Experiment [2] deals with T2, Nyv1 (Saccharomyces cerevisiae (endogenous in isolated vacuoles)) (UniProt Q12255).
T2 sequence: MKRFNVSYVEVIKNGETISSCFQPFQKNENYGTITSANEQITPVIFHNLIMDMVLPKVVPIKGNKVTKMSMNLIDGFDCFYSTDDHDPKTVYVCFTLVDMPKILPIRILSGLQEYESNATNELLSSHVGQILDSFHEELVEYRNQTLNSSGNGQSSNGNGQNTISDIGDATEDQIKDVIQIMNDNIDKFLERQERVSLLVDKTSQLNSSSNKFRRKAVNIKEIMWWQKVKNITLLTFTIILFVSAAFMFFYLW

Experiment [3] deals with T3, Ivy1 (Saccharomyces cerevisiae (endogenous in isolated vacuoles)) (UniProt Q04934).
T3 sequence: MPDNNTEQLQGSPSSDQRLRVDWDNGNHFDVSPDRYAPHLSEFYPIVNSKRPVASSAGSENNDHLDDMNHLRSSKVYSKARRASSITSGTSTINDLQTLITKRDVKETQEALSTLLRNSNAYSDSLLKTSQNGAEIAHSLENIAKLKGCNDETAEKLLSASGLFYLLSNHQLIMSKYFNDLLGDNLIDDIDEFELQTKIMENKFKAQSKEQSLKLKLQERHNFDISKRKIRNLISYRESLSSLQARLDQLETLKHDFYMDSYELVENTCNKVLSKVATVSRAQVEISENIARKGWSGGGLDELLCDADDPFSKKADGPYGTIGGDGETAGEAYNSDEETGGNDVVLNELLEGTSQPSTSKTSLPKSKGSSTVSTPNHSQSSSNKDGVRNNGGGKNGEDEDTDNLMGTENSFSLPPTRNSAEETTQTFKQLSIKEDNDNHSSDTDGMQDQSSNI

Experiment [4] addresses Vps16 (Saccharomyces cerevisiae (endogenous in isolated vacuoles)) (UniProt Q03308).
The target in experiment [5] is T4, Sec17 (homolog of alpha-SNAP) (Saccharomyces cerevisiae (endogenous in isolated vacuoles)), P32602.
T4 chain: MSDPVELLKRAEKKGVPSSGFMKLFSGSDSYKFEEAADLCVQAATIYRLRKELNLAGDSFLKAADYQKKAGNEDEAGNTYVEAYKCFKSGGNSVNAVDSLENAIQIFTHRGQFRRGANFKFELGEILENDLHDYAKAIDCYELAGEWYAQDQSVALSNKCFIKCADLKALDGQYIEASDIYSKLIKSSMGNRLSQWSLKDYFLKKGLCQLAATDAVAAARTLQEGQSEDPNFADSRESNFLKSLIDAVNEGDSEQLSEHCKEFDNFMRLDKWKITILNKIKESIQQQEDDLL
The following applies: remark: other sources report otherwise.

For experiment [6], the target named is Vps33 (Saccharomyces cerevisiae (endogenous in isolated vacuoles)) (UniProt P20795).
The target in experiment [7] is T5, Lcb4 (palmitoylated protein) (Saccharomyces cerevisiae (endogenous in isolated vacuoles)) (UniProt Q12246).
T5 sequence: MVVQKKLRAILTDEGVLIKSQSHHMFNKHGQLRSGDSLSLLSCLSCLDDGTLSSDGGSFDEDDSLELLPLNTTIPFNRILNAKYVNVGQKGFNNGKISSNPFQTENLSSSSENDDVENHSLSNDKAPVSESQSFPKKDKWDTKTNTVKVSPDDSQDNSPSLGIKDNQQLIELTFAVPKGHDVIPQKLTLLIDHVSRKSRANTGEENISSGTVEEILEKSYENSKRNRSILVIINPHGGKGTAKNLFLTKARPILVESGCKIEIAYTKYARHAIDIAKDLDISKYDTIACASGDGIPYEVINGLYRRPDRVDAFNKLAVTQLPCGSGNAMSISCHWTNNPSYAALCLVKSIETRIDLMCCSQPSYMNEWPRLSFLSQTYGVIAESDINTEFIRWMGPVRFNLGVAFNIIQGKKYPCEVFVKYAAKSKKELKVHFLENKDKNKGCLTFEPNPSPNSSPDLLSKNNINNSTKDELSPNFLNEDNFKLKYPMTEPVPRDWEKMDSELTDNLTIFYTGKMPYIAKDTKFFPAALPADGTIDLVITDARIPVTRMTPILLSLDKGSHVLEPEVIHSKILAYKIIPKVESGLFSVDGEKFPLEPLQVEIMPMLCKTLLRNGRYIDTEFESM

Experiment [8] has as its target T6, Vam3 (Saccharomyces cerevisiae (endogenous in isolated vacuoles)) (UniProt Q12241).
T6 sequence: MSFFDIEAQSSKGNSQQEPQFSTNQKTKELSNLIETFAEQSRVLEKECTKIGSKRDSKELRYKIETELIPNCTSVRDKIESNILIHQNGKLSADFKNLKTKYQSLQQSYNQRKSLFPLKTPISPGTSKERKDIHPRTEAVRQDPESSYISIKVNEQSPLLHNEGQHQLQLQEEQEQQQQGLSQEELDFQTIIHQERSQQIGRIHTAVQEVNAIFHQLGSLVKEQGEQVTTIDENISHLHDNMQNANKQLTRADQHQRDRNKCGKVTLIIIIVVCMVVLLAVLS

Experiment [9] addresses T7, Sec17 (homolog of alpha-SNAP) (Saccharomyces cerevisiae (endogenous in isolated vacuoles)) (UniProt P32602).
T7 sequence: T4 chain

Results are given in words; binding and its absence hold for the method and conditions named. Binding seen in cells or lysates may run through a third protein. Some results given as binding are weak or reduced against the parent protein; the word gives no strength. For part of these data: Where a sequence is shown, tags or fusion partners need not be part of it.

Consider “Rsp5 (ubiquitin ligase) (from UniProt P39940 1-809) (enzyme)”, for which, in experiment [1], the binding entry is reported as “binds”. Turning to Vti1 (from UniProt Q04338 1-217), the binding entry in [2] is recorded as “binds”. “Ypt7 (vacuolar Rab GTPase) (from UniProt P32939 1-208)”: in [3], the binding result is recorded as “binds”.

B1: Vam3 (protein, UniProt Q12241 1-283)
chain: T6 sequence
Regarding B1, the binding entry in [2] and in [4] was “binds” in each case.

B2: Vam3, Q12241 1-283 (protein)
chain: T6 sequence
Consider B2, for which the binding result in experiment [5] was “binds”.

B3: Nyv1 (protein, UniProt Q12255 1-253)
chain: T2 sequence
Take B3: the binding result in experiment [4] and in experiment [6] was “binds” throughout.

B4: Nyv1, Q12255 1-253 (protein)
chain: T2 sequence
As for B4, the binding entry in [5] is recorded as “binds”.

B5: Akr1 (palmitoyltransferase) (enzyme, UniProt P39010 1-764)
chain: MVNELENVPRASTLTNEEQTVDPSNNDSQEDISLGDSNEITSLASLKAIRSGNEEESGNEQVNHNDEAEEDPLLTRYHTACQRGDLATVKEMIHGKLLEVNNDGDSTEHITGLHWASINNRLSVVDFLVSQGADVNARAGALHATPLHWAARYGYVYIVDFLLKHGADPTMTDDQGFNLLHLSVNSSNIMLVLYVLFNVVSKGLLDIDCRDPKGRTSLLWAAYQGDSLTVAELLKFGASIKIADTEGFTPLHWGTVKGQPHVLKYLIQDGADFFQKTDTGKDCFAIAQEMNTVYSLREALTHSGFDYHGYPIKKWFKKSQHAKLVTFITPFLFLGIAFALFSHINPLFVIIVLFLLAIATNKGLNKFVLPSYGRMGVHNVTLLRSPLLSGVFFGTLLWVTIVWFFKVMPRTFSDEQYTNILMLVILVSVFYLFGQLVIMDPGCLPEETDHENVRQTISNLLEIGKFDTKNFCIETWIRKPLRSKFSPLNNAVVARFDHYCPWIFNDVGLKNHKAFIFFITLMESGIFTFLALCLEYFDELEDAHEDTSQKNGKCFILGASDLCSGLIYDRFVFLILLWALLQSIWVASLIFVQAFQICKGMTNTEFNVLMKESKSIGPDGLSFNENFNTTPEGFAPSIDPGEESNDTVLAPVPGSTIRKPRTCFGVCYAVTGMDQWLAVIKETIGIKDSTGHNVYSITSRIPTNYGWKRNVKDFWLTSDINAPLWRRILYPPSGSKALLNGIEVDYFKLYKLPNKDVEQGNDMV
For the molecule B5, in experiment [7], the binding entry is given as “binds”.

B6: Ykt6 (protein, UniProt P36015 1-200)
chain: MRIYYIGVFRSGGEKALELSEVKDLSQFGFFERSSVGQFMTFFAETVASRTGAGQRQSIEEGNYIGHVYARSEGICGVLITDKEYPVRPAYTLLNKILDEYLVAHPKEEWADVTETNDALKMKQLDTYISKYQDPSQADAIMKVQQELDETKIVLHKTIENVLQRGEKLDNLVDKSESLTASSKMFYKQAKKSNSCCIIM
On to B6, for which the binding entry in experiment [8] and in experiment [9] was “binds” in each case.

These data come from paper PMC11066047.
